Experimental data reported in PMC11455913.
These are yes or no findings as the source states them, for the method shown. In cells and extracts the contact can be indirect. Some entries that bind do so weakly or less than the wild type. For some of these results: Tags and fused reporters may be left off the sequences shown.

Chains of the proteins cited; added tags and fusions are not shown.
UniProt P14618: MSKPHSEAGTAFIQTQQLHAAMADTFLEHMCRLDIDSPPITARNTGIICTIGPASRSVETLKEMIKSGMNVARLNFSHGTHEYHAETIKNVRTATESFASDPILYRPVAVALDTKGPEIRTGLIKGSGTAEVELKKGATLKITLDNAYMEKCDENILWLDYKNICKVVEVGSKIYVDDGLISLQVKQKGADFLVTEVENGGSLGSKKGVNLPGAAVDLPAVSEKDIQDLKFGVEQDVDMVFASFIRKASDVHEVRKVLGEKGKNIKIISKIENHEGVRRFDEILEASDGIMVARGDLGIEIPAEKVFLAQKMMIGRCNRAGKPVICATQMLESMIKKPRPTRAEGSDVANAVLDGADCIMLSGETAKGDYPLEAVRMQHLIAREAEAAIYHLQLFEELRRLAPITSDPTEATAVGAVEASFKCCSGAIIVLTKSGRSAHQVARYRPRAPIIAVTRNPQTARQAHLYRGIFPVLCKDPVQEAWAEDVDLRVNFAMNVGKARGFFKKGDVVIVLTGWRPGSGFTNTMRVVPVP

Columns and labels:
[1] = molecular target: T1, CHAC1 (glutathione-specific gamma-glutamylcyclotransferase 1), endogenous (human (endogenous in LUAD cell lines A549, PC9)) (UniProt Q9BUX1); assay: co-IP; endogenous proteins in LUAD cells; RIPA lysis buffer with protease inhibitors, specific primary antibodies and protein A/G magnetic beads, normal IgG as control, washed thrice with TBS (50 mM Tris-HCl, 150 mM NaCl, pH 7.4), western blot; also with CHAC1 knockdown
T1 sequence: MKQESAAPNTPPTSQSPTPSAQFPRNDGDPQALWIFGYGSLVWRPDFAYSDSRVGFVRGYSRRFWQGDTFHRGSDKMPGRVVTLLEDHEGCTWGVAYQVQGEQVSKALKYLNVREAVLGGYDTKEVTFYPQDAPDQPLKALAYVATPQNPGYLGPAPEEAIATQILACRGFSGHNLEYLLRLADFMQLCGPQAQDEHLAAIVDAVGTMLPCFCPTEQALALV

[2] = molecular target: T2, FLAG-tagged CHAC1 (glutathione-specific gamma-glutamylcyclotransferase 1) (human) (UniProt Q9BUX1); assay: co-IP; LUAD cells (A549, PC9) expressing tagged proteins (Flag-CHAC1 lentivirus, HA-PKM2, FLAG-SUMO1); RIPA lysis buffer with protease inhibitors, specific primary antibodies and protein A/G magnetic beads, normal IgG as control, washed thrice with TBS (50 mM Tris-HCl, 150 mM NaCl, pH 7.4), western blot
T2 sequence: T1 sequence

[3] = molecular target: HA-tagged PKM2 (wild type) (UniProt P14618); assay: as above

Molecule: PKM2 (pyruvate kinase M2), endogenous (from UniProt P14618 1-531)
- binding [1]: binds
- binding [2]: binds

B1: FLAG-tagged CHAC1 (glutathione-specific gamma-glutamylcyclotransferase 1) (protein, UniProt Q9BUX1 1-222)
chain: T1 sequence
- binding [3]: binds

B2: UBA2 (ubiquitin-like modifier activating enzyme 2), endogenous (protein, UniProt Q9UBT2 1-640)
chain: MALSRGLPRELAEAVAGGRVLVVGAGGIGCELLKNLVLTGFSHIDLIDLDTIDVSNLNRQFLFQKKHVGRSKAQVAKESVLQFYPKANIVAYHDSIMNPDYNVEFFRQFILVMNALDNRAARNHVNRMCLAADVPLIESGTAGYLGQVTTIKKGVTECYECHPKPTQRTFPGCTIRNTPSEPIHCIVWAKYLFNQLFGEEDADQEVSPDRADPEAAWEPTEAEARARASNEDGDIKRISTKEWAKSTGYDPVKLFTKLFKDDIRYLLTMDKLWRKRKPPVPLDWAEVQSQGEETNASDQQNEPQLGLKDQQVLDVKSYARLFSKSIETLRVHLAEKGDGAELIWDKDDPSAMDFVTSAANLRMHIFSMNMKSRFDIKSMAGNIIPAIATTNAVIAGLIVLEGLKILSGKIDQCRTIFLNKQPNPRKKLLVPCALDPPNPNCYVCASKPEVTVRLNVHKVTVLTLQDKIVKEKFAMVAPDVQIEDGKGTILISSEEGETEANNHKKLSEFGIRNGSRLQADDFLQDYTLLINILHSEDLGKDVEFEVVGDAPEKVGPKQAEDAAKSITNGSDDGAQPSTSTAQEQDDVLIVDSDEEDSSNNADVSEEERSRKRKLDEKENLSAKRSRIEQKEELDDVIALD
- binding [2]: binds
